# The list is a part of this screen's results and no random one: it is rich in T/C values a quarter to a half above the control, in often repeated tests (any T/C) and in doses without a T/C. Other doses and runs of a compound stand elsewhere. T/C: endpoint of the treated group in % of that of the vehicle group. Some doses have a count of surviving animals in place of a T/C: the source files T/C as zero there, which appears to mark a toxic dose or a test without result, not a measured value. Some doses without a T/C left all or most animals alive at the check, yet need not have been tolerated: the source hardly ever lists a survival T/C far under the control, and the zero likely stands for such cases as well. Survivors were counted at the toxicity check, usually on the fifth day, unless a day is given; later deaths do not show. Schedules are NCI's codes, taken here to give the interval after Q, in days (D) or hours (H), and the number of doses after X. Some entries hold several experiments; the values are given in rising order. Marks such as (2×) stand for listed records that agree. For survival time, the PubChem record calls one and a half times the control and up active, and a quarter to a half above the control has no call in these data; cut-offs in other NCI protocols can differ. Some T/C values carry the count of animals alive at the toxicity check (mostly the fifth day); where none is given, no animal had died by that day.
# System: BDF1 mice, B16 melanoma ip, median survival T/C
# Assay: NCI In Vivo Anticancer Drug Screen. Data for tumor model B16 Melanoma (intraperitoneal) in B6D2F1 (BDF1) mice
# Settings: T/C endpoint: median survival time, higher T/C = longer survival
# Method in brief: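 Each result divides a survival or tumor-size measurement in the compound-treated group by the same measurement in the vehicle group.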
# [1] = dose: 2.0 mg/kg/injection, schedule: Q01DX009 (ip), vehicle: saline
# [2] = dose: 5.0 mg/kg/injection, schedule: Q01DX001 (ip), vehicle: water
structure (smiles),measurement,setting,value
CC[C@]1(O)C[C@H]2CN(CCc3c([nH]c4ccccc34)[C@@](C(=O)OC)(c3cc4c(cc3OC)N(C=O)[C@H]3[C@@](O)(C(=O)OC)[C@H](OC(C)=O)[C@]5(CC)C=CCN6CC[C@]43[C@@H]65)C2)C1,T/C,"dose: 0.84 mg/kg/injection, schedule: Q01DX005 (ip), vehicle: saline",128 % of control
same,T/C,"dose: 0.9 mg/kg/injection, schedule: Q04DX003 (ip), vehicle: saline",132 % of control
same,T/C,"dose: 1.0 mg/kg/injection, schedule: Q01DX009 (ip), vehicle: saline, evaluated on day 45",102 and 128 % of control
same,T/C,"dose: 1.0 mg/kg/injection, schedule: Q01DX009 (ip), vehicle: saline, evaluated on day 60","86, 88, 89, 90 % of control"
same,survivor count,"dose: 1.0 mg/kg/injection, schedule: Q01DX009 (ip), vehicle: saline","2 of 6, 3 of 6, 5 of 6 (2×), 9 of 10, 6 of 6 (2×)"
same,survivor count,"dose: 1.0 mg/kg/injection, schedule: Q01DX009 (ip), vehicle: water",9 of 10 and 10 of 10 (2×)
same,T/C,"dose: 1.0 mg/kg/injection, schedule: Q04DX003 (ip), vehicle: saline, evaluated on day 5",169 % of control
same,T/C,"dose: 1.0 mg/kg/injection, schedule: Q04DX003 (ip), vehicle: saline, evaluated on day 60","109, 132, 176, 179 % of control"
same,T/C,"dose: 1.08 mg/kg/injection, schedule: Q01DX001 (ip), vehicle: water",125 % of control
same,T/C,"dose: 1.08 mg/kg/injection, schedule: Q04DX003 (ip), vehicle: water",139 and 141 % of control
same,survivor count,"dose: 1.6 mg/kg/injection, schedule: Q01DX009 (ip), vehicle: saline",3 of 6 and 6 of 6
same,survivor count,"dose: 1.6 mg/kg/injection, schedule: Q04DX003 (ip), vehicle: water",10 of 10
same,survivor count,"dose: 1.67 mg/kg/injection, schedule: Q04DX003 (ip), vehicle: saline",9 of 10
same,T/C,"dose: 1.8 mg/kg/injection, schedule: Q04DX003 (ip), vehicle: water",147 % of control
same,T/C,"dose: 2.0 mg/kg/injection, schedule: Q01DX001 (ip), vehicle: saline",129 % of control
same,T/C,[1],89 and 110 % of control [5 of 6 alive]
same,survivor count,[1],"0 of 6, 1 of 6, 2 of 6 (2×), 3 of 6 (2×), 4 of 6, 7 of 10, 5 of 6 (2×), 10 of 10, 6 of 6 (2×), 7 of 7"
same,survivor count,"dose: 2.0 mg/kg/injection, schedule: Q04DX003 (ip), vehicle: saline",10 of 10
same,survivor count,"dose: 2.0 mg/kg/injection, schedule: Q04DX005 (ip), vehicle: saline",10 of 10
same,survivor count,"dose: 2.5 mg/kg/injection, schedule: Q04DX003 (ip), vehicle: saline",0 of 5
same,survivor count,"dose: 2.78 mg/kg/injection, schedule: Q04DX003 (ip), vehicle: saline",10 of 10
same,T/C,"dose: 3.0 mg/kg/injection, schedule: Q01DX001 (ip), vehicle: water",127 and 130 % of control
same,survivor count,"dose: 3.2 mg/kg/injection, schedule: Q01DX009 (ip), vehicle: saline",2 of 6 and 3 of 6
same,survivor count,"dose: 3.2 mg/kg/injection, schedule: Q04DX003 (ip), vehicle: water",10 of 10
same,T/C,"dose: 4.0 mg/kg/injection, schedule: Q01DX001 (ip), vehicle: saline",131 % of control
same,T/C,[2],131 % of control
same,survivor count,[2],10 of 10
same,survivor count,"dose: 6.4 mg/kg/injection, schedule: Q01DX009 (ip), vehicle: saline",0 of 6 and 2 of 6
same,survivor count,"dose: 8.0 mg/kg/injection, schedule: Q01DX001 (ip), vehicle: saline",9 of 10
same,survivor count,"dose: 12.8 mg/kg/injection, schedule: Q01DX009 (ip), vehicle: saline",0 of 6 and 1 of 6
same,T/C,"dose: 31.25 micrograms/kg/injection, schedule: Q01DX009 (ip), vehicle: water",137 % of control
same,T/C,"dose: 130.0 micrograms/kg/injection, schedule: Q01DX009 (ip), vehicle: water",134 % of control
same,T/C,"dose: 216.0 micrograms/kg/injection, schedule: Q01DX009 (ip), vehicle: water",145 % of control
same,T/C,"dose: 216.0 micrograms/kg/injection, schedule: Q04DX003 (ip), vehicle: saline",126 % of control
same,T/C,"dose: 233.0 micrograms/kg/injection, schedule: Q04DX003 (ip), vehicle: saline",127 % of control
same,T/C,"dose: 360.0 micrograms/kg/injection, schedule: Q01DX009 (ip), vehicle: water",143 % of control
same,T/C,"dose: 360.0 micrograms/kg/injection, schedule: Q04DX003 (ip), vehicle: saline",126 and 134 % of control [9 of 10 alive]
same,survivor count,"dose: 500.0 micrograms/kg/injection, schedule: Q01DX009 (ip), vehicle: water",10 of 10
same,survivor count,"dose: 600.0 micrograms/kg/injection, schedule: Q01DX009 (ip), vehicle: saline",9 of 10
same,T/C,"dose: 600.0 micrograms/kg/injection, schedule: Q01DX009 (ip), vehicle: water",141 % of control
same,T/C,"dose: 600.0 micrograms/kg/injection, schedule: Q04DX003 (ip), vehicle: saline",130 % of control
same,survivor count,"dose: 1000.0 micrograms/kg/injection, schedule: Q01DX009 (ip), vehicle: water",9 of 10
same,T/C,"dose: 1670.0 micrograms/kg/injection, schedule: Q04DX003 (ip), vehicle: saline",137 % of control
